# Measurements reported in the supplement of paper PMC8728848.
# Some of the results follow.
# Columns and labels:
# Assay in all cases: glycan array binding signal (z-score within array); higher = stronger binding
# Settings in all cases: glycan notation: IUPAC condensed, linker removed
# [1] = system: Gal(b1-4)GlcNAc(b1-3)Gal(b1-4)Glc
# How it was run: (§1)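 The binding signal is a Z-score computed within each array and averaged over linkers. Arrays of the same protein sequence at different concentrations or buffers were also averaged together. Data originate from 3228 arrays in the Consortium for Functional Glycomics database, kept only where the protein sequence was available.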
# [2] = system: Gal(b1-4)GlcNAc(b1-3)Gal(b1-4)[Fuc(a1-3)]GlcNAc(b1-3)Gal(b1-4)[Fuc(a1-3)]GlcNAc
# How it was run: as §1
# [3] = system: Gal(b1-4)GlcNAc(b1-3)GalNAc
# How it was run: as §1
# [4] = system: Gal(b1-4)GlcNAc(b1-3)[Fuc(a1-3)GlcNAc(b1-6)]Gal(b1-4)Glc
# How it was run: as §1
# [5] = system: Gal(b1-4)GlcNAc(b1-3)[Gal(b1-4)GlcNAc(b1-6)]Gal(b1-4)GlcNAc
# How it was run: as §1
# [6] = system: Gal(b1-4)GlcNAc(b1-3)[GlcNAc(b1-6)]Gal(b1-4)GlcNAc
# How it was run: as §1
# [7] = system: Gal(b1-4)GlcNAc(b1-6)Gal(b1-4)GlcNAc
# How it was run: as §1
# [8] = system: Gal(b1-4)GlcNAc(b1-6)GalNAc
# How it was run: as §1
# [9] = system: Gal(b1-4)GlcNAc(b1-6)[Gal(b1-3)]GalNAc
# How it was run: as §1
# [10] = system: Gal(b1-4)GlcNAc(b1-6)[Gal(b1-4)GlcNAc(b1-3)]GalNAc
# How it was run: as §1
# Gal(b1-4)GlcNAc6P = system: Gal(b1-4)GlcNAc6P
# How it was run: as §1
# Gal(b1-4)GlcNAc = system: Gal(b1-4)GlcNAc
# How it was run: as §1
# Gal(b1-4)Glc = system: Gal(b1-4)Glc
# How it was run: as §1
# Gal(b1-6)Gal = system: Gal(b1-6)Gal
# How it was run: as §1
# Gal3S(b1-3)GalNAc = system: Gal3S(b1-3)GalNAc
# How it was run: as §1
# Gal3S(b1-3)GlcNAc = system: Gal3S(b1-3)GlcNAc
# How it was run: as §1
# [11] = system: Gal3S(b1-3)[Fuc(a1-4)]GlcNAc
# How it was run: as §1
# Gal3S(b1-4)Glc6S = system: Gal3S(b1-4)Glc6S
# How it was run: as §1
# Gal3S(b1-4)GlcNAc = system: Gal3S(b1-4)GlcNAc
# How it was run: as §1
# Gal3S(b1-4)Glc = system: Gal3S(b1-4)Glc
# How it was run: as §1
# [12] = system: Gal3S(b1-4)[Fuc(a1-3)]Glc6S
# How it was run: as §1
# [13] = system: Gal3S(b1-4)[Fuc(a1-3)]GlcNAc6S
# How it was run: as §1
# [14] = system: Gal3S(b1-4)[Fuc(a1-3)]GlcNAc
# How it was run: as §1
# Gal3S4S(b1-4)GlcNAc = system: Gal3S4S(b1-4)GlcNAc
# How it was run: as §1
# Gal3S6S(b1-4)GlcNAc6S = system: Gal3S6S(b1-4)GlcNAc6S
# How it was run: as §1
# Gal3S6S(b1-4)GlcNAc = system: Gal3S6S(b1-4)GlcNAc
# How it was run: as §1
# Gal4S(b1-4)GlcNAc = system: Gal4S(b1-4)GlcNAc
# How it was run: as §1
# Gal4S6S(b1-4)GlcNAc = system: Gal4S6S(b1-4)GlcNAc
# How it was run: as §1
# Gal6P(b1-4)GlcNAc = system: Gal6P(b1-4)GlcNAc
# How it was run: as §1
# Gal6S(b1-3)GlcNAc6S = system: Gal6S(b1-3)GlcNAc6S
# How it was run: as §1
# Gal6S(b1-3)GlcNAc = system: Gal6S(b1-3)GlcNAc
# How it was run: as §1
# Gal6S(b1-4)Glc6S = system: Gal6S(b1-4)Glc6S
# How it was run: as §1
substance,measurement,setting,value
MpAFP RI GFP (Marinomonas primoryensis),glycan array binding signal (z-score),[1],-0.581
same,glycan array binding signal (z-score),[2],-0.56
same,glycan array binding signal (z-score),[3],-0.195
same,glycan array binding signal (z-score),[4],0.271
same,glycan array binding signal (z-score),[5],0.106
same,glycan array binding signal (z-score),[6],0.349
same,glycan array binding signal (z-score),[7],-0.444
same,glycan array binding signal (z-score),[8],-0.359
same,glycan array binding signal (z-score),[9],0.151
same,glycan array binding signal (z-score),[10],-0.588
same,glycan array binding signal (z-score),Gal(b1-4)GlcNAc6P,-0.563
same,glycan array binding signal (z-score),Gal(b1-4)GlcNAc,0.167
same,glycan array binding signal (z-score),Gal(b1-4)Glc,-0.463
same,glycan array binding signal (z-score),Gal(b1-6)Gal,-0.336
same,glycan array binding signal (z-score),Gal3S(b1-3)GalNAc,-0.706
same,glycan array binding signal (z-score),Gal3S(b1-3)GlcNAc,-0.429
same,glycan array binding signal (z-score),[11],0.172
same,glycan array binding signal (z-score),Gal3S(b1-4)Glc6S,-0.434
same,glycan array binding signal (z-score),Gal3S(b1-4)GlcNAc,-0.221
same,glycan array binding signal (z-score),Gal3S(b1-4)Glc,0.469
same,glycan array binding signal (z-score),[12],0.752
same,glycan array binding signal (z-score),[13],0.381
same,glycan array binding signal (z-score),[14],0.454
same,glycan array binding signal (z-score),Gal3S4S(b1-4)GlcNAc,-0.614
same,glycan array binding signal (z-score),Gal3S6S(b1-4)GlcNAc6S,-0.392
same,glycan array binding signal (z-score),Gal3S6S(b1-4)GlcNAc,-0.572
same,glycan array binding signal (z-score),Gal4S(b1-4)GlcNAc,-1.03
same,glycan array binding signal (z-score),Gal4S6S(b1-4)GlcNAc,-0.626
same,glycan array binding signal (z-score),Gal6P(b1-4)GlcNAc,-0.372
same,glycan array binding signal (z-score),Gal6S(b1-3)GlcNAc6S,-0.109
same,glycan array binding signal (z-score),Gal6S(b1-3)GlcNAc,-0.664
same,glycan array binding signal (z-score),Gal6S(b1-4)Glc6S,-0.489

# Random excerpt: 2 entries already listed, in no set order.
substance,measurement,setting,value
MpAFP RI GFP (Marinomonas primoryensis),glycan array binding signal (z-score),Gal6S(b1-4)Glc6S,-0.489
same,glycan array binding signal (z-score),Gal3S(b1-4)GlcNAc,-0.221
